These are yes or no findings as the source states them, for the method shown. Binding seen in cells or lysates may run through a third protein. Some binding calls cover weakened binding; strength is not graded here.

Chains of the proteins cited; added tags and fusions are not shown.
UniProt Q09472: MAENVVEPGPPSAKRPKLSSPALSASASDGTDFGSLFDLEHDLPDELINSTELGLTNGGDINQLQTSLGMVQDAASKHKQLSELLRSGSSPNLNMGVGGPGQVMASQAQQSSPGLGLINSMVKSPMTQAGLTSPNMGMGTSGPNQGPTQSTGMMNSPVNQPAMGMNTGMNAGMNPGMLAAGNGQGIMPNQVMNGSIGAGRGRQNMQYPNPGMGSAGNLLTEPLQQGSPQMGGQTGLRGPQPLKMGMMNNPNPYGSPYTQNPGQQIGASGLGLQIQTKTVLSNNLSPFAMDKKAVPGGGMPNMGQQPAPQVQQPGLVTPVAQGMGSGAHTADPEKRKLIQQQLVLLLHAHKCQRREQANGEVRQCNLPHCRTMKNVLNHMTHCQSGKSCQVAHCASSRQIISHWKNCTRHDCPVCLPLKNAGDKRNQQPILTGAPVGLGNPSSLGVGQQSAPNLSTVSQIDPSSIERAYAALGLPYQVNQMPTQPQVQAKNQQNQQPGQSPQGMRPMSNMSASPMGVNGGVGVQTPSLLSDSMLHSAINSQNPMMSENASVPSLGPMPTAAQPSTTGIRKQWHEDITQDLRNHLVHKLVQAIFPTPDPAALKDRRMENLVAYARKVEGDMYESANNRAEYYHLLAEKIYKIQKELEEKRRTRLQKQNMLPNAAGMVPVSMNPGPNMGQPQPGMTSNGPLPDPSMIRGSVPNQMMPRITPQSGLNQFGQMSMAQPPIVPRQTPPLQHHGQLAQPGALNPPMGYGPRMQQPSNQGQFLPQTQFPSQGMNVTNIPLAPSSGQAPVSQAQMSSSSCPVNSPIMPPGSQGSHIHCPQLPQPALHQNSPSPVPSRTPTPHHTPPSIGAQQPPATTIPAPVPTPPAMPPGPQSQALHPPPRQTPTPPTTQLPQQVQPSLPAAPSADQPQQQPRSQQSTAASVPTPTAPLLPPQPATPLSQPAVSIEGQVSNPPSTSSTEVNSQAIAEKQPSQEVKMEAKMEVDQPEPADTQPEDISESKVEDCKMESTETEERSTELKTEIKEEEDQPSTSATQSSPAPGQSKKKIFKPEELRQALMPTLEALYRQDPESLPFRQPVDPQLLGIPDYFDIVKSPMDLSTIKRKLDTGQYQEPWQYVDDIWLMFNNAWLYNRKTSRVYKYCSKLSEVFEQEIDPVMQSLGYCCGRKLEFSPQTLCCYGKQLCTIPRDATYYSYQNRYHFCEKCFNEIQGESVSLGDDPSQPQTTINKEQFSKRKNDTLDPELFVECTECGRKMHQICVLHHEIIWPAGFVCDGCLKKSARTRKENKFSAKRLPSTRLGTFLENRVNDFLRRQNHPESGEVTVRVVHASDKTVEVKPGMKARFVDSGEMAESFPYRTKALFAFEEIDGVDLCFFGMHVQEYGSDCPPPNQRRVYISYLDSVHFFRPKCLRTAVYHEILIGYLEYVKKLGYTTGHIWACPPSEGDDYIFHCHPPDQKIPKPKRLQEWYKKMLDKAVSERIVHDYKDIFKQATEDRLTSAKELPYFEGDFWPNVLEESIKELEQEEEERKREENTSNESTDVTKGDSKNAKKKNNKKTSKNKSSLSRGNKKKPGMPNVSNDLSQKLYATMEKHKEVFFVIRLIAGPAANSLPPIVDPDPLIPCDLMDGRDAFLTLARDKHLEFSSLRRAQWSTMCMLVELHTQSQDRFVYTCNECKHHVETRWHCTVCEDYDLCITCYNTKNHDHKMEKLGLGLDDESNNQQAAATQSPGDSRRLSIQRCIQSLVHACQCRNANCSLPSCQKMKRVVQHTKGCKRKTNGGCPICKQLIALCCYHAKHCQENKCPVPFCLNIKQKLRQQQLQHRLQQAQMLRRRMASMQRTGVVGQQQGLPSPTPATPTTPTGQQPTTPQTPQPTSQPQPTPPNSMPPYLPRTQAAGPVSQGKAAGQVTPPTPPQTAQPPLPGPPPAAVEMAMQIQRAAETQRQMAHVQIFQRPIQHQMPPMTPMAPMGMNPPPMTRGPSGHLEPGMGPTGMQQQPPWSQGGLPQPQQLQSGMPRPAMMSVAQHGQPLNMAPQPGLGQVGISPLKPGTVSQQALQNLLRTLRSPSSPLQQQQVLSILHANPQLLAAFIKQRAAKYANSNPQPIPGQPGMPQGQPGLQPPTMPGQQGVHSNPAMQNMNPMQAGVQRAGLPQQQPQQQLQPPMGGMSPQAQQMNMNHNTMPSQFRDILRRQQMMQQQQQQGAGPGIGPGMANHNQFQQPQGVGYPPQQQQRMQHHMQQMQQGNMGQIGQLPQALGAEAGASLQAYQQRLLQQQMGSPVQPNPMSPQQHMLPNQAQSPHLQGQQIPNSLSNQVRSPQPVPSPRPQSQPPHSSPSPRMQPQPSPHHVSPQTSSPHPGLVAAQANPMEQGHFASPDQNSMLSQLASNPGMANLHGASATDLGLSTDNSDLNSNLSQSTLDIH
UniProt P05549: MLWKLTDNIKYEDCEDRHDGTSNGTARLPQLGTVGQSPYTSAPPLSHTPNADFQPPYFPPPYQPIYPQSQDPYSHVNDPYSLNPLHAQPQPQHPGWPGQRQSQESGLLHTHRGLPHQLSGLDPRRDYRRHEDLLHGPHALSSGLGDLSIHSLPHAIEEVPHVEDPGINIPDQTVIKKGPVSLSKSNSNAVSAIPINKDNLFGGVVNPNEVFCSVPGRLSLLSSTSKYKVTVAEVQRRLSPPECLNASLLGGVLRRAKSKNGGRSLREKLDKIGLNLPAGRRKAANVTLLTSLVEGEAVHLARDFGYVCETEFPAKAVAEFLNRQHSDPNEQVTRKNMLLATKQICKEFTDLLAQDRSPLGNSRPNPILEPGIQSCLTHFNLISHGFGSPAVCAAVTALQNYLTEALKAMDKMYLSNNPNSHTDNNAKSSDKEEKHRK

This test concerns the target EP300 (human (endogenous in 786-O and Caki-1)) (UniProt Q09472). Kind of test: co-IP; Co-IP of EP300 with TFAP2A and SP1 in 786-O and Caki-1 cells; which protein was precipitated is not told.

Take TFAP2A (from UniProt P05549 1-437): the binding entry was “binds”.

For the origin of these results see PMC11343739.
